Experiment: Decomposition and acid generation amount by photoirradiation (titration)
Type: physicochemical
Conditions: 0.02-mmol/g acetonitrile solution, 365 nm, 0.4 mW/cm^2 for 1200 seconds, exposure amount 480 mJ/cm^2

Going from `CCCCOc1ccc([S+](CCCC)CCCC)c2c(OCCCC)cccc12.O=S(=O)([N-]S(=O)(=O)C(F)(F)F)C(F)(F)F` [Ex. 7, 1-(4,8-di-n-butoxynaphthyl)di-n-butylsulfonium di(1,1,1-trifluoromethanesulfone)imide] to `CCCCOc1ccc2c(OCCCC)ccc([S+](CCCC)CCCC)c2c1.O=S(=O)([N-]S(=O)(=O)C(F)(F)F)C(F)(F)F` [Ex. 10, 1-(4,7-di-n-butoxynaphthyl)di-n-butylsulfonium di(1,1,1-trifluoromethanesulfone)imide], the Acid generation rate rises from 16% to 17%.

Going from `CCCCOc1ccc2ccc(OCCCC)c([S+](C(C)C)C(C)C)c2c1.O=S(=O)([N-]S(=O)(=O)C(F)(F)F)C(F)(F)F` [Ex. 12, 1-(2,7-di-n-butoxynaphthyl)diisopropyl sulfonium di(1,1,1-trifluoromethanesulfone)imide] to `CCCCOc1ccc2ccc(OCCCC)c([S+](CCCC)CCCC)c2c1.O=S(=O)([N-]S(=O)(=O)C(F)(F)F)C(F)(F)F` [Ex. 9, 1-(2,7-di-n-butoxynaphthyl)di-n-butylsulfonium di(1,1,1-trifluoromethanesulfone)imide], the Acid generation rate falls from 25% to 9%.

Going from `O=S1(=O)[N-]S(=O)(=O)C(F)(F)C(F)(F)C1(F)F.c1ccc([S+](c2ccccc2)c2ccccc2)cc1` [C. Ex. 1, triphenylsulfonium 1,1,2,2,3,3-hexafluorotrimethylene imide, reference compound] to `COc1ccc2ccc(OC)c([S+](c3ccccc3)c3ccccc3)c2c1.O=S1(=O)[N-]S(=O)(=O)C(F)(F)C(F)(F)C1(F)F` [C. Ex. 2, 1-(2,7-dimethoxynaphthyl)diphenylsulfonium 1,1,2,2,3,3-hexafluorotrimethylene sulfone imide, reference compound], the Acid generation rate falls from 4% to 0%.

First: CCCCOc1ccc2ccc(OCCCC)c([S+](CCCC)CCCC)c2c1.O=S(=O)([N-]S(=O)(=O)C(F)(F)C(F)(F)C(F)(F)C(F)(F)F)C(F)(F)C(F)(F)C(F)(F)C(F)(F)F [Ex. 1, 1-(2,7-di-n-butoxynaphthyl)di-n-butylsulfonium di(1,1,2,2,3,3,4,4,4-nonafluorobutanesulfone)imide]
Second: CCCCOc1ccc2c(OCCCC)ccc([S+](CCCC)CCCC)c2c1.O=S(=O)([N-]S(=O)(=O)C(F)(F)C(F)(F)C(F)(F)C(F)(F)F)C(F)(F)C(F)(F)C(F)(F)C(F)(F)F [Ex. 3, 1-(4,7-di-n-butoxynaphthyl)di-n-butylsulfonium di(1,1,2,2,3,3,4,4,4-nonafluorobutanesulfone)imide]
The Acid generation rate of the first is lower: 12% for the first, 19% for the second.

Going from `O=S(=O)([N-]S(=O)(=O)C(F)(F)C(F)(F)C(F)(F)C(F)(F)F)C(F)(F)C(F)(F)C(F)(F)C(F)(F)F.c1ccc([S+](c2ccccc2)c2ccccc2)cc1` [C. Ex. 4, triphenylsulfonium di(1,1,2,2,3,3,4,4,4-nonafluorobutanesulfone)imide, reference compound] to `CCCCOc1ccc2ccc(OCCCC)c([S+](c3ccccc3)c3ccccc3)c2c1.O=S(=O)([N-]S(=O)(=O)C(F)(F)C(F)(F)C(F)(F)C(F)(F)F)C(F)(F)C(F)(F)C(F)(F)C(F)(F)F` [C. Ex. 5, 1-(2,7-di-n-butoxynaphthyl)diphenylsulfonium di(1,1,2,2,3,3,4,4,4-nonafluorobutanesulfone)imide, reference compound], the Acid generation rate falls from 2% to 1%.

First: CCCCCCCCOc1ccc2ccc(OCCCCCCCC)c([S+](C)C)c2c1.O=S(=O)([N-]S(=O)(=O)C(F)(F)F)C(F)(F)F [Ex. 11, 1-(2,7-di-n-octoxynaphthyl)dimethylsulfonium di(1,1,1-trifluoromethanesulfone)imide]
Second: CCCCOc1ccc2ccc(OCCCC)c([S+](C)C)c2c1.O=S(=O)([N-]S(=O)(=O)C(F)(F)C(F)(F)C(F)(F)C(F)(F)F)C(F)(F)C(F)(F)C(F)(F)C(F)(F)F [Ex. 2, 1-(2,7-di-n-butoxynaphthyl)dimethylsulfonium di(1,1,2,2,3,3,4,4,4-nonafluorobutanesulfone)imide]
The Acid generation rate of the first is lower: 4% for the first, 6% for the second.

First: CCCCOc1ccc2ccc(OCCCC)c([S+](CCCC)CCCC)c2c1.F[P-](F)(F)(F)(F)F [C. Ex. 3, 1-(2,7-di-n-butoxynaphthyl)di-n-butylsulfonium hexafluorophosphate, reference compound]
Second: CCCCOc1ccc2ccc(OCCCC)c([S+](CCCC)CCCC)c2c1.O=S1(=O)[N-]S(=O)(=O)C(F)(F)C(F)(F)C1(F)F [Ex. 4, 1-(2,7-di-n-butoxynaphthyl)di-n-butylsulfonium 1,1,2,2,3,3-hexafluorotrimethylene sulfone imide]
The Acid generation rate of the first is higher: 15% for the first, 12% for the second.

First: CCCCOc1ccc2ccc(OCCCC)c([S+](C(C)C)C(C)C)c2c1.O=S(=O)([N-]S(=O)(=O)C(F)(F)C(F)(F)C(F)(F)C(F)(F)F)C(F)(F)C(F)(F)C(F)(F)C(F)(F)F [Ex. 13, 1-(2,7-di-n-butoxynaphthyl)diisopropyl sulfonium di(1,1,2,2,3,3,4,4,4-nonafluorobutanesulfone)imide]
Second: CCCCOc1ccc([S+](CCCC)CCCC)c2c(OCCCC)cccc12.O=S(=O)([N-]S(=O)(=O)C(F)(F)C(F)(F)C(F)(F)C(F)(F)F)C(F)(F)C(F)(F)C(F)(F)C(F)(F)F [Ex. 8, 1-(4,8-di-n-butoxynaphthyl)di-n-butylsulfonium di(1,1,2,2,3,3,4,4,4-nonafluorobutanesulfone)imide]
The Acid generation rate of the first is lower: 15% for the first, 17% for the second.

Going from `CCCCOc1cc(OCCCC)c2ccccc2c1[S+](CCCC)CCCC.O=S(=O)([N-]S(=O)(=O)C(F)(F)C(F)(F)C(F)(F)C(F)(F)F)C(F)(F)C(F)(F)C(F)(F)C(F)(F)F` [Ex. 5, 1-(2,4-di-n-butoxynaphthyl)di-n-butylsulfonium di(1,1,2,2,3,3,4,4,4-nonafluorobutanesulfone)imide] to `CCCCOc1ccc2ccc(OCCCC)c([S+](CCCC)CCCC)c2c1.O=S(=O)([O-])C(F)(F)C(F)(F)C(F)(F)C(F)(F)F` [Ex. 6, 1-(2,7-di-n-butoxynaphthyl)di-n-butylsulfonium 1,1,2,2,3,3,4,4,4-nonafluorobutanesulfonate], the Acid generation rate rises from 3% to 12%.

From patent US9465288B2, “Sulfonium salt compound, method for producing the same, and photoacid generator” (DSP GOKYO FOOD & CHEMICAL CO., LTD., priority 2012, dated 2016)
